Results on three molecules are retold here after publication PMC11507436.

The chains behind the UniProt entries cited, without tags or fusion partners. Where a name states a change or a piece, a line headed by the entry shows the natural chain unless it says otherwise.
UniProt P22202: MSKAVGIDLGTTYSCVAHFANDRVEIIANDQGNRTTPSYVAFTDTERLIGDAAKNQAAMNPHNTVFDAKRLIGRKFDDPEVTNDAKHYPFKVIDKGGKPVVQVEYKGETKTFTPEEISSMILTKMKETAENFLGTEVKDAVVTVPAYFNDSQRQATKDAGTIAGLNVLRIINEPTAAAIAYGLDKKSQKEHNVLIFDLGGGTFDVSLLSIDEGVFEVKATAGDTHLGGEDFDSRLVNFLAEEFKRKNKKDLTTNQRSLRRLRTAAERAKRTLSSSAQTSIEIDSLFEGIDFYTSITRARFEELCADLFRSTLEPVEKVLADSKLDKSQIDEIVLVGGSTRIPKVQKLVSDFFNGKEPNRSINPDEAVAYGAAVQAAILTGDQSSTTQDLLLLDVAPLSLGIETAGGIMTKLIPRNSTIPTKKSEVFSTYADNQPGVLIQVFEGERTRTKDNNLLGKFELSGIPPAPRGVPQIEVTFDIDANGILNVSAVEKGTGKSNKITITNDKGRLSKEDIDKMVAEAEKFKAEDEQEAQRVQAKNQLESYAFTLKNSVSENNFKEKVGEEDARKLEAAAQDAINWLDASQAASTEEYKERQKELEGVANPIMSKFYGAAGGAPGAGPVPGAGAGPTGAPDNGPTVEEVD

No constants are given. Whether binding was seen depends on the method and setting. For part of these data: Binding seen in cells or lysates may run through a third protein. Some results given as binding are weak or reduced against the parent protein; the word gives no strength. For part of these data: Where a sequence is shown, tags or fusion partners need not be part of it.

Test [1] concerns the target BD-ScSSA4 (Stressseventy subfamily A 4, bait in pGBKT7) (yeast (prefix Sc; S288C reference genome named for yeast CDSs)) (UniProt P22202). The test is described as follows: two-hybrid; ScSSA4 in pGBKT7 as bait; screen of a yeast cDNA library, then AD-ScPOM34 and BD-ScSSA4 co-transformed into Y2H Gold yeast, dilution assay on SD/-Leu/-Trp/-His/-Ade plate.
For test [2], the target named is ScSSA4 in the BiFC vector pDOE01 (yeast (prefix Sc; S288C reference genome named for yeast CDSs)) (UniProt P22202). Nature of the test: split reporter; BiFC: pDOE01-ScSSA4-ScPOM34 agroinfiltrated into N. benthamiana; confocal imaging 45 h after agroinfiltration, YFP channel.
Test [3] has as its target ScSSA4-MYC (yeast (prefix Sc; S288C reference genome named for yeast CDSs)) (UniProt P22202). The test is described as follows: co-IP; ScSSA4-MYC and ScPOM34-FLAG co-expressed in N. benthamiana leaves; extract in IP buffer (150 mM NaCl, 5 mM DTT, 50 mM Tris-HCl pH 7.5, 1% Triton X-100) with anti-MYC antibody and protein A/G magnetic beads, 16 h at 4 °C; blot with anti-FLAG; extract without antibody as control.

B1: AD-ScPOM34 (POre Membrane 34, prey in pGADT7) (protein, UniProt Q12445 1-299)
chain: MKIQAGQLGLDDNDVPGPLPDTDSKPSSQSQNDTPMFKLGNFESPVLKELSRRTVNKEMETQRIMTNVIAFAFWNLLVKFIKFFWNNTHVGRQFCNRLSRIHLYMLTFHTLKKANIIYHTTFSWLNAELLDYLFHLLISLNILFSLWKLLSTVKVSDLNLTDRQKKLLGVDMQSSVDTGLQPQHPHYVSTSKISQMAQNKTHIPQTNLKNHPAYLFKGLETPLKARQREMAEEQTKLQSQSLHTKNVFGTLQRHSGISSTLVSANNDNNSPHTPVTRKGYIPSSKYAYMMNSQSPRGKI
With B1, the binding result in test [1] was “binds”.

B2: ScPOM34 in the BiFC vector pDOE01 (protein, UniProt Q12445 1-299)
chain: B1 chain
Turning to B2, the binding result in test [2] was “binds”.

B3: ScPOM34-FLAG (protein, UniProt Q12445 1-299)
chain: B1 chain
Regarding B3, the binding entry in test [3] was “binds”.
